These are yes or no findings as the source states them, for the method shown. Binding seen in cells or lysates may run through a third protein. Some binding calls cover weakened binding; strength is not graded here.
Assays:
[1] = target: recombinant EC-Met protein (UniProt P08581); test: coimmunoprecipitation with recombinant proteins
[2] = target: recombinant Sema (rSema) protein, Sema and PSI domains of the Met receptor with 8× His tag (UniProt P08581); test: coimmunoprecipitation with recombinant proteins

The chains behind the UniProt entries cited, without tags or fusion partners. Where a name states a change or a piece, a line headed by the entry shows the natural chain unless it says otherwise.
UniProt P14210: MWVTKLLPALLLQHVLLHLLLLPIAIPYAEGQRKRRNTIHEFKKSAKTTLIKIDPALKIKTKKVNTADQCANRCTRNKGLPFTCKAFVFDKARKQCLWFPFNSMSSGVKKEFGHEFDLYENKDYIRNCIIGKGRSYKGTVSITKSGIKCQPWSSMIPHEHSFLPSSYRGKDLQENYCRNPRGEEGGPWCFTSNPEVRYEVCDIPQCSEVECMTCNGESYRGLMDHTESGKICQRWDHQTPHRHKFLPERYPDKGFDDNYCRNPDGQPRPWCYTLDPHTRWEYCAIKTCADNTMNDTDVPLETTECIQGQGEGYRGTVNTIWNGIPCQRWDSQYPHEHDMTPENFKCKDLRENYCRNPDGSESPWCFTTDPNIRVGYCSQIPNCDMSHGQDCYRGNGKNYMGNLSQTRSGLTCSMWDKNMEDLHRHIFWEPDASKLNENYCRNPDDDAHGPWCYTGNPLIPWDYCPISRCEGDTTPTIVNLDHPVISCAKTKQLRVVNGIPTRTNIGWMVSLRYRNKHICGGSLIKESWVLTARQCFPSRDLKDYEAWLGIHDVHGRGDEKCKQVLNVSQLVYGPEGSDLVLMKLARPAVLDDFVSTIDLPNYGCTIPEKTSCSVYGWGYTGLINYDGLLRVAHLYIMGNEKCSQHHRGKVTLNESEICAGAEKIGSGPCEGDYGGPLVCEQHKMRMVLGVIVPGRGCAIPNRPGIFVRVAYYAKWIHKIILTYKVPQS

binding [1]: binds
binding [2]: binds
Substance: Recombinant HGF (hepatocyte growth factor) (from UniProt P14210 32-494; P14210 495-728) (ligand)
